# In paper PMC5625491:
# Sequences of proteins named here, by UniProt entry; tags and fusion partners are left off.
# UniProt P10217: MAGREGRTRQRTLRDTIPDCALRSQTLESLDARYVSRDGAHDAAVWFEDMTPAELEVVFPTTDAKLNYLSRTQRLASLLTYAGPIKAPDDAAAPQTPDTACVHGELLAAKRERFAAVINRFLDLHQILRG
# These are yes or no findings as the source states them, for the method shown. Binding seen in cells or lysates may run through a third protein. Some results given as binding are weak or reduced against the parent protein; the word gives no strength.
# T1: UL28 protein (pUL28) of herpes simplex virus 1 (herpes simplex virus 1, strain F [HSV-1(F)]) (UniProt P10212)
# T1 sequence: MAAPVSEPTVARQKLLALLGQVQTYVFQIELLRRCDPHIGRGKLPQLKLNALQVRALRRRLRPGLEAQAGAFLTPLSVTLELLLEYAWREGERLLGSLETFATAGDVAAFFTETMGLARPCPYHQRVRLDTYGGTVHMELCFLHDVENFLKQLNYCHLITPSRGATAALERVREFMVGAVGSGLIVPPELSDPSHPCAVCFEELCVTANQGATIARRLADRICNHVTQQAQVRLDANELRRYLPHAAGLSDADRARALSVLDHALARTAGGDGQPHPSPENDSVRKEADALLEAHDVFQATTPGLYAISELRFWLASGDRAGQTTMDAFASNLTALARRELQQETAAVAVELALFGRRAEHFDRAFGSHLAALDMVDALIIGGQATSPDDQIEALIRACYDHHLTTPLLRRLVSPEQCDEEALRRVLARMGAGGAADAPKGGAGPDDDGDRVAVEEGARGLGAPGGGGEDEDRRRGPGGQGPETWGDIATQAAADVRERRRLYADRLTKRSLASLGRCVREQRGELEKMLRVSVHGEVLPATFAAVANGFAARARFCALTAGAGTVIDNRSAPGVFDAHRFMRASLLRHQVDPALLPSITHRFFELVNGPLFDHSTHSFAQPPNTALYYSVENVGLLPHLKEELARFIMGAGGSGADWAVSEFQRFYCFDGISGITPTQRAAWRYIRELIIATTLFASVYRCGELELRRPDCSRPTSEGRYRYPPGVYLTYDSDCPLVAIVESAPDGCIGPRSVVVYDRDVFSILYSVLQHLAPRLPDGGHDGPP
# Tests used:
# [1] = target: T1, UL28 protein (pUL28) of herpes simplex virus 1 (herpes simplex virus 1, strain F [HSV-1(F)]); experiment: co-IP; CV1 cells infected at MOI 5, lysed 18 h p.i. in RIPA buffer (50 mM Tris-HCl pH 7.4, 150 mM NaCl, 1% NP-40, 0.25% sodium deoxycholate, 1 mM EDTA); precipitated with anti-pUL28 antibody, blot probed for pUL33 (Fig. 2B)
# [2] = target: UL33-encoded protein (pUL33) of herpes simplex virus 1, wild type (herpes simplex virus 1, strain F [HSV-1(F)]) (UniProt P10217); experiment: co-IP; CV1 cells infected at MOI 5, lysed 18 h p.i. in RIPA buffer (50 mM Tris-HCl pH 7.4, 150 mM NaCl, 1% NP-40, 0.25% sodium deoxycholate, 1 mM EDTA); precipitated with anti-pUL33 antibody, blot probed for pUL28 (Fig. 2A)
Molecule,binding [1],binding [2]
"UL33-encoded protein (pUL33) of herpes simplex virus 1, wild type (from UniProt P10217 1-130)",binds,
"UL28 protein (pUL28) of herpes simplex virus 1 (protein, UniProt P10212 1-785) MAAPVSEPTVARQKLLALLGQVQTYVFQIELLRRCDPHIGRGKLPQLKLNALQVRALRRRLRPGLEAQAGAFLTPLSVTLELLLEYAWREGERLLGSLETFATAGDVAAFFTETMGLARPCPYHQRVRLDTYGGTVHMELCFLHDVENFLKQLNYCHLITPSRGATAALERVREFMVGAVGSGLIVPPELSDPSHPCAVCFEELCVTANQGATIARRLADRICNHVTQQAQVRLDANELRRYLPHAAGLSDADRARALSVLDHALARTAGGDGQPHPSPENDSVRKEADALLEAHDVFQATTPGLYAISELRFWLASGDRAGQTTMDAFASNLTALARRELQQETAAVAVELALFGRRAEHFDRAFGSHLAALDMVDALIIGGQATSPDDQIEALIRACYDHHLTTPLLRRLVSPEQCDEEALRRVLARMGAGGAADAPKGGAGPDDDGDRVAVEEGARGLGAPGGGGEDEDRRRGPGGQGPETWGDIATQAAADVRERRRLYADRLTKRSLASLGRCVREQRGELEKMLRVSVHGEVLPATFAAVANGFAARARFCALTAGAGTVIDNRSAPGVFDAHRFMRASLLRHQVDPALLPSITHRFFELVNGPLFDHSTHSFAQPPNTALYYSVENVGLLPHLKEELARFIMGAGGSGADWAVSEFQRFYCFDGISGITPTQRAAWRYIRELIIATTLFASVYRCGELELRRPDCSRPTSEGRYRYPPGVYLTYDSDCPLVAIVESAPDGCIGPRSVVVYDRDVFSILYSVLQHLAPRLPDGGHDGPP",,binds
